Reference: PMC8429977, “Phosphorylation of slit diaphragm proteins NEPHRIN and NEPH1 upon binding of HGF promotes podocyte repair” (The Journal of Biological Chemistry, 2021)
No constants are given. Whether binding was seen depends on the method and setting. For part of these data: In cells and extracts the contact can be indirect. Some binding calls cover weakened binding; strength is not graded here. For part of these data: Where a sequence is shown, tags or fusion partners need not be part of it. Each block holds one molecule with its values, some of them ahead of it.

Protein sequences, listed by entry. Tags and fused reporters are not part of them. Residues count along the entry.
UniProt P14210, residues 32-728: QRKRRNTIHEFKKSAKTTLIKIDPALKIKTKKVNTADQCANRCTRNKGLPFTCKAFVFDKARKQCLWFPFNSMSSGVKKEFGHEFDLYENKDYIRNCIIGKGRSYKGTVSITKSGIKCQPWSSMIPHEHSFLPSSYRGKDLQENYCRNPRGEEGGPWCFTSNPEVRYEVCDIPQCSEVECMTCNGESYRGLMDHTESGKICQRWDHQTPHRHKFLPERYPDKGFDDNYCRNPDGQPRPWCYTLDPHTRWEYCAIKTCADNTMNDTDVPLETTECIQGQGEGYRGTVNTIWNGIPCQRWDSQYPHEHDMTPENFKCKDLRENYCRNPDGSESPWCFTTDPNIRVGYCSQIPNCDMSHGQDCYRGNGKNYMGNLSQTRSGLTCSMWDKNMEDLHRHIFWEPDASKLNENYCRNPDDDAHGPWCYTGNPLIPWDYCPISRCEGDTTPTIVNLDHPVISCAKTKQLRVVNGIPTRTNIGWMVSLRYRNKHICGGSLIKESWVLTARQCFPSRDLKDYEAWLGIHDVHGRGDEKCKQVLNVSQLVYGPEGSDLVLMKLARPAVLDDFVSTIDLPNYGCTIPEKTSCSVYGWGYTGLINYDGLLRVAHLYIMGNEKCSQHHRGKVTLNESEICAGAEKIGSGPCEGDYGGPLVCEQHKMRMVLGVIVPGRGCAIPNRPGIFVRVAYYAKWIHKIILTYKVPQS

Experiments:
NEPHRIN Peptide-2 = biological target: T1, NEPHRIN Peptide-2; experiment: condition: 300 ng peptide spotted; 1 μg recombinant purified HGF; far-Western, overlay or dot blot; 300 ng peptide spotted on nitrocellulose, blocked with fat-free milk, incubated with 1 μg recombinant purified HGF in 5% BSA in PBS at 4 °C, detected with anti-HGF antibody; both purified
T1 sequence (peptide): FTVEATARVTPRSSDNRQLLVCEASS

[1] = biological target: HGF-FLAG expressed in HEK293 cells (UniProt P14210); experiment: co-IP; HEK 293T cells stably expressing FLAG-NEPH1 or FLAG-NEPHRIN transfected with HGF plasmid; RIPA lysate; anti-HGF antibody and protein G agarose, 4 °C; Western blot with FLAG antibody

binding (NEPHRIN Peptide-2): no binding
Molecule: purified human recombinant HGF (from UniProt P14210 32-728) (ligand)

binding [1]: binds
B1: FLAG-tagged full-length NEPH1 (protein, UniProt Q80W68 48-789)
chain: LPGTQTRFSQEPADQTVVAGQRAVLPCVLLNYSGIVQWTKDGLALGMGQGLKAWPRYRVVGSADAGQYNLEITDAELSDDASYECQATEAALRSRRAKLTVLIPPEETRIDGGPVILLQAGTPYNLTCRAFNAKPAATIIWFRDGTQQEGAVTSTELLKDGKRETTISQLLIEPTDLDIGRVFTCRSMNEAIPNGKETSIELDVHHPPTVTLSIEPQTVLEGERVIFTCQATANPEILGYRWAKGGFLIEDAHESRYETNVDYSFFTEPVSCEVYNKVGSTNVSTLVNVHFAPRIVVYPKPTTTDIGSDVTLTCVWVGNPPLTLTWTKKDSNMVLSNSNQLLLKSVTQADAGTYTCRAIVPRIGVAEREVPLYVNGPPIISSEAVQFAVRGDGGKVECFIGSTPPPDRIAWAWKENFLEVGTLERYTVERTNSGSGVLSTLTINNVMEADFQTHYNCTAWNSFGPGTAIIQLEEREVLPVGIIAGATIGAGILVVFSFAALVFFLYRRRKGSRKDVTLRKLDIKVETVNREPLTMHSDREDDTASISTATRVMKAIYSSFKDDVDLKQDLRCDTIDTREEYEMKDPTNGYYNVRAHEDRPSSRAVLYADYRAPGPTRFDGRPSSRLSHSSGYAQLNTYSRAPASDYGTEPTPSGPSAPGGTDTTSQLSYENYEKFNSHPFPGAAGYPTYRLGYPQAPPSGLERTPYEAYDPIGKYATATRFSYTSQHSDYGQRFQQRMQTHV

binding [1]: binds
B2: FLAG-tagged full-length NEPHRIN (protein, UniProt Q9QZS7 37-1256)
chain: QSPVPTSAPRGFWALSENLTVVEGSTVKLWCGVRAPGSVVQWAKDGLLLGPNPKIPGFPRYSLEGDSAKGEFHLLIEACDLSDDAEYECQVGRSELGPELVSPSVILSILVSPKVLQLTPEAGSTVTWVAGQEYVVTCVSGDAKPAPDIIFIQGGRTVEDVSSSVNEGSEEKLFFTEAEARVTPQSSDNGQLLVCEGSNPALATPIKASFTMNILFPPGPPVIDWPGLNEGHVRAGENLELPCIARGGNPPATLQWLKNGKPVSIAWGTEHAQAVAHSVLVMTVRPEDHGARLSCQSYNSVSAETQERSITLQVTFPPSAVTILGSTSQSENKNVTLCCLTKSSRPRVLLRWWLGGRQLLPTDETVMDGLHGGHISMSNLTLLVKREDNGLSLTCEAFSDAFSKETFKKSLTLNVKYPAQKLWIEGPPEGQSIRTGTRVRLVCLAIGGNPEPSLTWLKDSRPVNDPRQSQEPRRVQLGSVEKSGSTFSRELVLIIGPPDNLAKFSCKAGQLSASTQLVVQFPPTNLTILANSSALRPGDALNLTCVSISSNPPVNLSLDKEGERLDDVAAKPQSAPFKGSAASRSVFLRVSSRDHGHRVTCRAHSEALRETVSSFYRLNVLYPPEFLGEQVRAVTVVEQGQALLPVSVSANPAPEAFNWTFRGYRLSPAGGPRHRILSGGALQLWNVTRADDGFYQLHCQNSEGTAEALLKLDVHYAPTIRALKDPTEVNVGGSVDIVCTVDANPILPEMFSWERLGEDEEELNLDDMEKMSKGSTGRLRIRQAKLSQAGAYQCIVDNGVAPAARGLVRLVVRFAPQVDHPTPLTKVAAAGDSTSSATLHCRARGVPNIDFTWTKNGVPLDLQDPRYTEHKYHQGVVHSSLLTIANVSAAQDYALFKCTATNALGSDHTNIQLVSISRPDPPLGLKVVSVSPHSVGLEWKPGFDGGLPQRFQIRYEALESPGFLYMDVLPAQATTFTLTGLKPSTRYRIWLLASNALGDSGLTDKGIQVSITTPGLDQAPEDTDQPLPTEQPPGPPRLPLLPVLFAVGGLLLLSNASCVGGLLWRRRLRRLAEEISEKTEAGSEEDRIRNEYEESQWTGDRDTRSSTVSTAEVDPHYYSMRDFSPQLPPTLEEVSYRQAFTGIEDEDMAFPGHLYDEVERVYGPPGVWGPLYDEVQMDPYDLRWPEVKYEDPRGIYDQVAADMDAGEPGSLPFELRGHLV
